Source: patent US12703728B2, “Interleukin 29 mutant protein” (priority 2020, dated 2026)
For some assays here: For at least one compound, name, drawing or mass did not settle the structure. Some entries share one result that the patent states for a list of compounds.

Tests used:
novel coronavirus = assay: Inhibition of novel coronavirus in Vero cells, immunofluorescence assay; assay type: cell-based, African green monkey; conditions: positive control group, 0.3 μM and above
Vero cells = assay: Toxic effects on Vero cells by CCK-8 assay; conditions: 50 μmol/L and below, 48 h

Structure (SMILES): CCC(CC)COC(=O)[C@H](C)N[P@](=O)(OC[C@H]1O[C@@](C#N)(c2ccc3c(N)ncnn23)[C@H](O)[C@@H]1O)Oc1ccccc1 [Remdesivir]
- inhibitory effect on viral infection in vitro (immunofluorescence) (novel coronavirus): significant inhibitory effect
- cell viability (Vero cells): greater than 90%
